From patent publication US20030199462A1
These are yes or no findings as the source states them, for the method shown. In cells and extracts the contact can be indirect. Some binding calls cover weakened binding; strength is not graded here.

By UniProt entry, the sequences of proteins in these tests, tags left out. Where a name states a change or a piece, a line headed by the entry shows the natural chain unless it says otherwise.
UniProt Q8NFD2: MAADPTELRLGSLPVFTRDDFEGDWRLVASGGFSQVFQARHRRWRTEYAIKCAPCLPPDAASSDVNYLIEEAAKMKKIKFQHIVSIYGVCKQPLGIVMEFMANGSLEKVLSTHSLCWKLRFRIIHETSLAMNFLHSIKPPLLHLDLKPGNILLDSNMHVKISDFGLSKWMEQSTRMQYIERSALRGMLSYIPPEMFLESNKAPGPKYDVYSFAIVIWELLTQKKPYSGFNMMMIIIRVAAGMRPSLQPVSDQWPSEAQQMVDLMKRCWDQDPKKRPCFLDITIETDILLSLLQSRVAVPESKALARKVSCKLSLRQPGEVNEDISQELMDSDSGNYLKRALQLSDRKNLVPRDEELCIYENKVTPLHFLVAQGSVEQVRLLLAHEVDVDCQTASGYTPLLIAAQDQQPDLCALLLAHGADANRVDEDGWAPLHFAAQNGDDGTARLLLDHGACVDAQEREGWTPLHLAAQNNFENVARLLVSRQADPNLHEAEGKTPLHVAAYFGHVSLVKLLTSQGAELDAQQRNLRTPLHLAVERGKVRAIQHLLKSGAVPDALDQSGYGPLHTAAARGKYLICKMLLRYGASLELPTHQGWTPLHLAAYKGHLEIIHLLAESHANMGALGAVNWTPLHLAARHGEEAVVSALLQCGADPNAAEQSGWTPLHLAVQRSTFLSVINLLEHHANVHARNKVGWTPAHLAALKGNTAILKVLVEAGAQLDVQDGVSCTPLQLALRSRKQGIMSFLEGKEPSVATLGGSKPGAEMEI

What was measured:
[1] = target: T1, PKK (protein kinase C-associated kinase), mouse, wild type (mouse) (UniProt Q9ERK0); assay: co-immunoprecipitation (legend of FIG. 22)
T1 sequence: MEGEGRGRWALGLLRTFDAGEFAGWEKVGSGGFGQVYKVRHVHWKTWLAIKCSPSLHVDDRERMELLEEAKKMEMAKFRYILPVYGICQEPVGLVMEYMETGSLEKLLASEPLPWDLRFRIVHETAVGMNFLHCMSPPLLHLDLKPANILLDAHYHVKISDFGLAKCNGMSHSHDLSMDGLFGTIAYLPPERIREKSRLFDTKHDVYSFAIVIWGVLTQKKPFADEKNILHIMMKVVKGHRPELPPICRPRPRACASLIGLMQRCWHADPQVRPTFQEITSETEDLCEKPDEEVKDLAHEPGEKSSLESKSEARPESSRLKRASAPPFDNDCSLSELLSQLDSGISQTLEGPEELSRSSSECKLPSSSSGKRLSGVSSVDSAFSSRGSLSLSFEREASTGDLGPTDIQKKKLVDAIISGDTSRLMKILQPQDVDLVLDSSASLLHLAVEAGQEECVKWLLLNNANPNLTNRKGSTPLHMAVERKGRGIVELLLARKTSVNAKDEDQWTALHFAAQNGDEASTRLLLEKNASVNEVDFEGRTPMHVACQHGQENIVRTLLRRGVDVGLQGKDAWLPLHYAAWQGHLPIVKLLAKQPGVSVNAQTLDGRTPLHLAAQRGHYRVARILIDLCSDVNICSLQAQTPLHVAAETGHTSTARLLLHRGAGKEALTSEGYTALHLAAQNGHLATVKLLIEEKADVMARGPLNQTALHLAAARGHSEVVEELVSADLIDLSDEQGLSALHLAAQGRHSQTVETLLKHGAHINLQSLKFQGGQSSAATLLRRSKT

[2] = target: T1, PKK (protein kinase C-associated kinase), mouse, wild type (mouse); assay: co-immunoprecipitation (summary sentence about the filing's own experiments)
[3] = target: T1, PKK (protein kinase C-associated kinase), mouse, wild type (mouse); assay: co-immunoprecipitation from transfected HEK293T cells (IP anti-Myc, blot anti-Flag)

Measured: binding

RICK3 (human RICK3, wild type) (from UniProt Q8NFD2 1-765) (enzyme)
binds: all assays above
